Measurements taken from the supplement of paper PMC3334620.
Over roughly 33,000 sequences, “E-score (-0.5 to 0.5)” has its median near -0.016; the highest 2% begin near 0.3. Some of the results follow.

target: T1, Yer184c (UniProt P39961); experiment: PBM E-score (8-mer binding enrichment) (E-score (-0.5 to 0.5)); higher = stronger / more preferred TF binding; conditions: protein concentration: 100 nM; construct: GST-full length
T1 sequence: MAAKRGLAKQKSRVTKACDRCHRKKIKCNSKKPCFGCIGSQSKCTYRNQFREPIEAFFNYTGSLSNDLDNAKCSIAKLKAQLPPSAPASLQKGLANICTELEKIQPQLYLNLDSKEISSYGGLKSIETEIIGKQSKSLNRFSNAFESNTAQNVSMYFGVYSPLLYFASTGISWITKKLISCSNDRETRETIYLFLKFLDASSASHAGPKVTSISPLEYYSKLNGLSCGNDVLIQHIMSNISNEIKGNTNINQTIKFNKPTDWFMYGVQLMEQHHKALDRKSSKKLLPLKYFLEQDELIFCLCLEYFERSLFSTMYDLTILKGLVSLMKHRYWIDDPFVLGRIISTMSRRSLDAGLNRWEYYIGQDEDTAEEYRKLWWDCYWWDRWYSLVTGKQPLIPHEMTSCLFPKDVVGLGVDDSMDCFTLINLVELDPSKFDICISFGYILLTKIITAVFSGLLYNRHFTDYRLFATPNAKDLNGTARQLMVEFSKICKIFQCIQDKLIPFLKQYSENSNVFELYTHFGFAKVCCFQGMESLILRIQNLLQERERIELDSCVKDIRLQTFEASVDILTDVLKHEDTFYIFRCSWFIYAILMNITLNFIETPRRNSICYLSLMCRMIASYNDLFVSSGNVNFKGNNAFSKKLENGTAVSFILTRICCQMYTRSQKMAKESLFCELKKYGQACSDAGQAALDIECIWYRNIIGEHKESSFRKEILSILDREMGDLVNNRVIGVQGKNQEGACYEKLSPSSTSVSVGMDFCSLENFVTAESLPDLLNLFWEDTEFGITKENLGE
Outline: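 Universal all-10-mer Agilent arrays, double-stranded by primer extension on fresh or once-stripped slides, were probed with about 100-200 nM GST-tagged yeast transcription factors made by PURExpress. Fluorescent anti-GST detected bound protein, and masliner normalised the scans. E-scores from the Universal PBM Analysis Suite were given to each ungapped eight-base word pooled with its reverse complement.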

| Sequence | PBM E-score |
| --- | --- |
| AGCCGTAA | 0.285 |
| TCTAAACA | 0.0276 |
| AAGAGGAT | -0.266 |
| ACAAGATC | 0.119 |
| CTATGCAG | -0.0128 |
| AAAATTGT | 0.201 |
| AGGAACAC | 0.161 |
| ATGCGACG | -0.12 |
| AGTCATTC | -0.0943 |
| CTTACGAA | 0.0913 |
| GAGGGCAA | -0.0172 |
| TACTGGCA | -0.149 |
| CACCTAGA | -0.251 |
| TACTCGGA | 0.287 |
| AACCTACA | 0.142 |
| CCCGGGAG | 0.253 |
| CAGTACAC | 0.00699 |
| CTACATCC | 0.00687 |
| CATAAGTC | -0.0307 |
| AATAGTGC | 0.122 |
| GGACGTCC | -0.063 |
| CCCCAACC | -0.231 |
| GACGTGCC | -0.235 |
| TCCCTGCA | -0.138 |
| ATGGCCTA | -0.203 |

Reformatted: entries from further up.
Sequence | PBM E-score
TACTGGCA | -0.149
CACCTAGA | -0.251
TACTCGGA | 0.287
AACCTACA | 0.142
CCCGGGAG | 0.253
CAGTACAC | 0.00699
CTACATCC | 0.00687

Next records

| Sequence | PBM E-score |
| --- | --- |
| AGGGGGTC | -0.39 |
| GTTGAGAA | 0.0483 |
| ATTAACGG | 0.23 |
| ACTGCTCT | -0.114 |
| GTACTGCA | 0.0335 |
| GTGTCAGA | 0.125 |
| GACCAATC | 0.00517 |
| AGCGGTGA | -0.0103 |
| AGTAATAA | 0.105 |
| ACTAAGAG | -0.14 |
| AGGCCGTA | 0.178 |
| CGCATGCA | 0.116 |
| AGAAAGAC | -0.132 |
| GAAATGCC | 0.067 |
| GATTTCGA | 0.042 |
| CAGAACAG | -0.127 |
| CATTGGGG | -0.304 |
| CAGGGTTC | -0.1 |
| ATCCATTC | 0.16 |
| AAAGCGAA | 0.0331 |
| AGTCTAGG | -0.144 |
| AGGGGCAA | -0.244 |
| AAGTGATG | -0.07 |
| AGTGTTGA | 0.0919 |
| GTAAGACA | 0.0606 |

| Sequence | PBM E-score |
| --- | --- |
| TATTTAAA | 0.218 |
| AATTGCAC | 0.0043 |
| AGTTCCAA | 0.122 |
| GGTATTAC | 0.233 |
| GGGACCGA | 0.158 |
| CGTACTGC | -0.122 |
| AATACCCA | 0.0211 |
| AAACAAGG | -0.096 |
| ACTTCTCG | 0.17 |
| AACTCGTC | -0.0807 |
| GGATTCGA | -0.0994 |
| AAGTTGAG | 0.0313 |
| AAGACTGT | -0.0493 |
| CAGGTCGA | -0.00477 |
| ACGAAACC | 0.219 |
| GCACCGAA | 0.174 |
| AATTCGAG | -0.108 |
| CCATTTAA | 0.206 |
| AGAAAAAA | 0.203 |
| ATCCTTGG | 0.017 |
| CACTCAGC | -0.0362 |
| CAGGGGGC | -0.284 |
| AGCGGTAG | -0.141 |
| GCCCGCGA | -0.00435 |
| GTCCTGGA | -0.241 |

No new results follow: entries from further up.

| Sequence | PBM E-score |
| --- | --- |
| TATTTAAA | 0.218 |
| AATTGCAC | 0.0043 |

(listing goes on)

| Sequence | PBM E-score |
| --- | --- |
| AAAATCGG | 0.15 |
| ACCTGTAT | -0.169 |
| CCGCGTTC | 0.147 |
| GACGATGA | 0.0507 |
| CGCGATGC | -0.146 |
| CTTCTCCA | -0.106 |
| CATATCGG | 0.0288 |
| AGTTCCCA | 0.0448 |
| AGGGTCCG | 0.00576 |
| ACAGGTGA | -0.193 |
| CAGGACGC | -0.0689 |
| TGTGTCAA | -0.115 |
| CAAATATA | 0.0999 |
| GTTTGAGA | -0.169 |
| CAGTACCG | 0.0817 |
| TAAGCAAA | -0.0338 |
| GCAACGGA | 0.294 |
| GAAAAATC | 0.162 |
| GACGTTTA | -0.00627 |
| CTGTCTAC | -0.0237 |
| AGGATGTA | -0.114 |
| ACTGGCCG | -0.118 |
| ATAGAAGC | 0.171 |
| CGTAGAAC | 0.0148 |
| AACTCACC | -0.101 |

| Sequence | PBM E-score |
| --- | --- |
| ACAATCTC | -0.06 |
| GGCCCCCA | -0.3 |
| ACGACCCC | -0.136 |
| CTACTAGC | 0.143 |
| ACAACAGT | -0.0303 |
| AACGGCAT | 0.247 |
| CAGATGAC | -0.263 |
| ACTCAAAC | 0.158 |
| GACTTACC | -0.0786 |
| CTCAGCGC | -0.0245 |
| AACAATTG | -0.0709 |
| GGGGGGTA | -0.265 |
| CGCACAAC | -0.12 |
| TCTTCACA | 0.0179 |
| ATCTCCGA | 0.36 |
| ATGAAGCC | 0.287 |
| GTGATATA | -0.153 |
| CACCTAGC | -0.187 |
| ACTGAGTC | -0.00384 |
| GGCCGCGA | -0.0617 |
| AGGAATTG | -0.0124 |
| ATCCCGGG | 0.36 |
| CCGAGTAG | 0.177 |
| CAGCTGAA | -0.00121 |
| GATGCTGA | -0.203 |

| Sequence | PBM E-score |
| --- | --- |
| ACGGAAAG | 0.231 |
| GACGCTAC | -0.0102 |
| CTATACCC | -0.085 |
| CTTACCAA | 0.103 |
| TGTCACAA | 0.257 |
| ACTAACCT | 0.0571 |
| CGGACGAG | 0.185 |
| GTACCGCA | 0.226 |
| AATGAATA | -0.0133 |
| CCAACACG | -0.0252 |
| GCCTGTCC | -0.0809 |
| GGGTTTTA | -0.0731 |
| ACGCCCGG | 0.266 |
| CGGGGCTA | -0.119 |
| AAGTCTTG | 0.0186 |
| CTTTACTC | -0.0421 |
| AGTACCCA | -0.253 |
| CTGCTCCC | -0.116 |
| TCCTTAAA | -0.0526 |
| ATAAAGTA | 0.227 |
| AAAAGCTA | -0.00714 |
| CACCCTCA | -0.268 |
| GATCAACA | 0.0638 |
| CGTGAGAC | -0.0524 |
| AAACCTGG | -0.147 |

| Sequence | PBM E-score |
| --- | --- |
| CACGAGCA | -0.133 |
| TCCGCAGA | -0.0109 |
| ATCCGCGC | 0.141 |
| AATCTCGG | 0.263 |
| CATACATG | -0.058 |
| CTCCAAGC | -0.181 |
| GGGCGCGA | 0.0674 |
| AGAGGAAG | -0.0422 |
| CAGCCTCC | -0.248 |
| ATGTTACG | -0.021 |
| ACTCGCAA | 0.0905 |
| CCCTCAGC | -0.0999 |
| AAATCACG | 0.155 |
| CCCGCGGC | 0.35 |
| GGCCTCAA | 0.0126 |
| AGCCCCGG | 0.131 |
| ATTAAAAT | 0.265 |
| TAATAAGA | 0.199 |
| CTTATTCA | -0.132 |
| CGGGACTC | 0.0381 |
| ATCCCTGG | -0.121 |
| AGAAATAT | 0.152 |
